Reference: article PMC8384837
Residue numbers refer to the chain shown, from its start. This is one part of the list. For some assays here: At the low end of the ranking the order means little.

Key:
Conditions in all cases: yeast three-hybrid, YBZ-1, SC-Leu-His + 0.5 mM 3-AT, 4 days
[1] = target: T1, PUM1 PUF domain R5-PHQ R6-SWD C1007P + R1008H + N1043S + Y1044W + Q1047D (Homo sapiens) (UniProt Q14671)
T1 sequence: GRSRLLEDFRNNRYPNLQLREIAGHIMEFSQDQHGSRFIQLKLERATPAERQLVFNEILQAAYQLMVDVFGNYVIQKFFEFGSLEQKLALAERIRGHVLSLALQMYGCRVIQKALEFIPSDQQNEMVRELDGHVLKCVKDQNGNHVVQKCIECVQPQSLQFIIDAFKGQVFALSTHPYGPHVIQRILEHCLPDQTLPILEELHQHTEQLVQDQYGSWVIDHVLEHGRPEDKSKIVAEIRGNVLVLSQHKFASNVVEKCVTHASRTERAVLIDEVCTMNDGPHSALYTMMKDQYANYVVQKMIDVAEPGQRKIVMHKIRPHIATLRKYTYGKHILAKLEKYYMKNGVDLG

[2] = target: T2, PUM1 PUF domain R6-CWG N1043C + Y1044W + Q1047G (Homo sapiens) (UniProt Q14671)
T2 sequence: T1 sequence with P180C, H181R, S216C, D220G

[3] = target: T3, PUM1 PUF domain R6-FWG N1043F + Y1044W + Q1047G (Homo sapiens) (UniProt Q14671)
T3 sequence: T1 sequence with P180C, H181R, S216F, D220G

[4] = target: T4, PUM1 PUF domain R6-GWK N1043G + Y1044W + Q1047K (Homo sapiens) (UniProt Q14671)
T4 sequence: T1 sequence with P180C, H181R, S216G, D220K

[5] = target: T5, PUM1 PUF domain R6-KWG N1043K + Y1044W + Q1047G (Homo sapiens) (UniProt Q14671)
T5 sequence: T1 sequence with P180C, H181R, S216K, D220G

[6] = target: T6, PUM1 PUF domain R6-LWG N1043L + Y1044W + Q1047G (Homo sapiens) (UniProt Q14671)
T6 sequence: T1 sequence with P180C, H181R, S216L, D220G

[7] = target: T7, PUM1 PUF domain R6-QWG N1043Q + Y1044W + Q1047G (Homo sapiens) (UniProt Q14671)
T7 sequence: T1 sequence with P180C, H181R, S216Q, D220G

[8] = target: T8, PUM1 PUF domain R6-RFR N1043R + Y1044F + Q1047R (Homo sapiens) (UniProt Q14671)
T8 sequence: T1 sequence with P180C, H181R, S216R, W217F, D220R

[9] = target: T9, PUM1 PUF domain R6-RFV N1043R + Y1044F + Q1047V (Homo sapiens) (UniProt Q14671)
T9 sequence: T1 sequence with P180C, H181R, S216R, W217F, D220V

[10] = target: T10, PUM1 PUF domain R6-RWA N1043R + Y1044W + Q1047A (Homo sapiens) (UniProt Q14671)
T10 sequence: T1 sequence with P180C, H181R, S216R, D220A

[11] = target: T11, PUM1 PUF domain R6-RWL N1043R + Y1044W + Q1047L (Homo sapiens) (UniProt Q14671)
T11 sequence: T1 sequence with P180C, H181R, S216R, D220L

[12] = target: T12, PUM1 PUF domain R6-RWV N1043R + Y1044W + Q1047V (Homo sapiens) (UniProt Q14671)
T12 sequence: T1 sequence with P180C, H181R, S216R, D220V

[13] = target: T13, PUM1 PUF domain R6-SWS N1043S + Y1044W + Q1047S (Homo sapiens) (UniProt Q14671)
T13 sequence: T1 sequence with P180C, H181R, D220S

[14] = target: T14, PUM1 PUF domain R6-VWG N1043V + Y1044W + Q1047G (Homo sapiens) (UniProt Q14671)
T14 sequence: T1 sequence with P180C, H181R, S216V, D220G

[15] = target: T15, PUM1 PUF domain R6-VWL N1043V + Y1044W + Q1047L (Homo sapiens) (UniProt Q14671)
T15 sequence: T1 sequence with P180C, H181R, S216V, D220L

[16] = target: T16, PUM1 PUF domain R6-WWA N1043W + Y1044W + Q1047A (Homo sapiens) (UniProt Q14671)
T16 sequence: T1 sequence with P180C, H181R, S216W, D220A

[17] = target: T17, PUM1 PUF domain R6-WWG N1043W + Y1044W + Q1047G (Homo sapiens) (UniProt Q14671)
T17 sequence: T1 sequence with P180C, H181R, S216W, D220G

[18] = target: T18, PUM1 PUF domain R6-WWR N1043W + Y1044W + Q1047R (Homo sapiens) (UniProt Q14671)
T18 sequence: T1 sequence with P180C, H181R, S216W, D220R

[19] = target: T19, PUM1 PUF domain R3-THE R4-TFR C935T + R936H + Q939E + N971T + H972F + Q975R (Homo sapiens) (UniProt Q14671)
T19 sequence: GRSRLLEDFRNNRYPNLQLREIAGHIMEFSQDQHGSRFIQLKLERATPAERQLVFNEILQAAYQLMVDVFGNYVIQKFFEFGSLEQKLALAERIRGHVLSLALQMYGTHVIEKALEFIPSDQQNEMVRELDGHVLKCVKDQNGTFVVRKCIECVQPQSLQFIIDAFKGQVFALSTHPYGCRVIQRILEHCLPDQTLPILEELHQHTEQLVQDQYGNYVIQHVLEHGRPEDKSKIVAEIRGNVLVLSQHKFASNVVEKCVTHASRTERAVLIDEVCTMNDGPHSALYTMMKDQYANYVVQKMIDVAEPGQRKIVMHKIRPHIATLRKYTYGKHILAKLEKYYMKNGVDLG

[20] = target: T20, PUM1 PUF domain R2-KFG N899K + Y900F + Q903G (UniProt Q14671)
T20 sequence: T1 sequence with N72K, Y73F, Q76G, P180C, H181R, S216N, W217Y, D220Q

## GGCUAGAACUAGUGGAUCCCCCGGCGCCCGGCGGCUCGAGCCCGGGUAAGUGGAAAUAGUCUGCAUGCCGCCGGGCGCCAUGCCUGCAGGUCGACUCUAGAAAACAUG
[1]
  binding signal (log2 enrichment (interaction score)): 6.12
[2]
  binding signal (log2 enrichment (interaction score)): -5.21
[3]
  binding signal (log2 enrichment (interaction score)): -4.45
[4]
  binding signal (log2 enrichment (interaction score)): -3.67
[5]
  binding signal (log2 enrichment (interaction score)): -2.97
[6]
  binding signal (log2 enrichment (interaction score)): -0.3
[7]
  binding signal (log2 enrichment (interaction score)): -1.28
[8]
  binding signal (log2 enrichment (interaction score)): -2.57
[9]
  binding signal (log2 enrichment (interaction score)): -5.36
[10]
  binding signal (log2 enrichment (interaction score)): -1.63
[11]
  binding signal (log2 enrichment (interaction score)): -0.19
[12]
  binding signal (log2 enrichment (interaction score)): -5.44
[13]
  binding signal (log2 enrichment (interaction score)): -1.05
[14]
  binding signal (log2 enrichment (interaction score)): -2.38
[15]
  binding signal (log2 enrichment (interaction score)): -0.25
[16]
  binding signal (log2 enrichment (interaction score)): -5.5
[17]
  binding signal (log2 enrichment (interaction score)): -0.87
[18]
  binding signal (log2 enrichment (interaction score)): -0.9

## GGCUAGAACUAGUGGAUCCCCCGGCGCCCGGCGGCUCGAGCCCGGGUAAGUGUAGGUAGUCUGCAUGCCGCCGGGCGCCAUGCCUGCAGGUCGACUCUAGAAAACAUG
[19]
  binding signal (log2 enrichment (interaction score)): -1.74

## GGCUAGAACUAGUGGAUCCCCCGGCGCCCGGCGGCUCGAGCCCGGGUAAGUGUAAAAAGUCUGCAUGCCGCCGGGCGCCAUGCCUGCAGGUCGACUCUAGAAAACAUG
[20]
  binding signal (log2 enrichment (interaction score)): < -6.39
